Results published in patent publication US8324199B2, “Pyridazine derivatives as factor xia inhibitors” (Bristol-Myers Squibb Company, priority 2008, dated 2012).
Some results were stated once for a whole list of compounds, not compound by compound.

Amino acid sequences for entries named in this document (tags omitted). Residues count along the entry.
UniProt P03951, 19-387 partner limits assumed: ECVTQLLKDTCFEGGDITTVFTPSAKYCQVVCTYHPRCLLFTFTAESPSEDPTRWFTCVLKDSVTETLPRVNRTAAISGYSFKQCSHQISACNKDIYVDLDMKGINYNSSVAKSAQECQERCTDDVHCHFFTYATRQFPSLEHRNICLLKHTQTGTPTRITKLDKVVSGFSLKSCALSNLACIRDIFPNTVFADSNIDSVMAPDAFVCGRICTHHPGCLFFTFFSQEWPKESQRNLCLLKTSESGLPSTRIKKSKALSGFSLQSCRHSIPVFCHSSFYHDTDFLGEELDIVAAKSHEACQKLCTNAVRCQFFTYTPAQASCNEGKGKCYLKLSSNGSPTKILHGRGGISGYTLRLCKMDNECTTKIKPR
UniProt P03951, 388-625 limits assumed: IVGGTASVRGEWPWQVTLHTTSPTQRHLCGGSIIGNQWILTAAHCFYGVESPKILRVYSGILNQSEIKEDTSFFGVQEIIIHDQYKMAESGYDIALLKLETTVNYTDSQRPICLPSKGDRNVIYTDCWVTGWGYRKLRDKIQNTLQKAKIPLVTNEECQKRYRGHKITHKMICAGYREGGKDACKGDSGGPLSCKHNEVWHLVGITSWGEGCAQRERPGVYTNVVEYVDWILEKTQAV

Target: T1, purified human Factor XIa (Homo sapiens, UniProt P03951)
T1 construct: purchased Haematologic Technologies
Assay: Factor XIa assay (chromogenic substrate hydrolysis, Ki)
Type: biochemical
Conditions: tested in the Factor XIa assay described above
Description: The effectiveness of compounds of the present invention as inhibitors of the coagulation factors XIa, VIIa, IXa, Xa, XIIa, plasma kallikrein or thrombin, can be determined using a relevant purified serine protease, respectively, and an appropriate synthetic substrate. The rate of hydrolysis of the chromogenic or fluorogenic substrate by the relevant serine protease was measured both in the absence and presence of compounds of the present invention. […] A decrease in the rate of absorbance or fluorescence change in the presence of inhibitor is indicative of enzyme inhibition. Such methods are known to one skilled in the art. The results of this assay are expressed as the inhibitory constant, Ki.
Factor XIa determinations were made in 50 mM HEPES buffer at pH 7.4 containing 145 mM NaCl, 5 mM KCl, and 0.1% PEG 8000 (polyethylene glycol; JT Baker or Fisher Scientific). Determinations were made using purified human Factor XIa at a final concentration of 75-200 pM (Haematologic Technologies) and the synthetic substrate S-2366 (pyroGlu-Pro-Arg-pNA; Chromogenix or AnaSpec) at a concentration of 0.0002-0.001 M.
The Michaelis constant, Km, for substrate hydrolysis by each protease, was determined at 25° C. using the method of Lineweaver and Burk. Values of Ki were determined by allowing the protease to react with the substrate in the presence of the inhibitor. Reactions were allowed to go for periods of 20-180 minutes (depending on the protease) and the velocities (rate of absorbance or fluorescence change versus time) were measured. The following relationships were used to calculate Ki values: (vo−vs)/vs=I/(Ki(1+S/Km)) for a competitive inhibitor with one binding site; or vs/vo=A+((B−A)/1+((IC50/(I)^n))); and Ki=IC50/(1+S/Km) for a competitive inhibitor where: […]

Row | SMILES | Factor XIa inhibitory activity
1 | COC(=O)Nc1ccc(-c2cc(C(CC(=O)N3CCN(C)CC3)NC(=O)/C=C/c3cc(Cl)ccc3-n3cnnn3)c(Cl)nn2)cc1 (single isomer, unassigned) [Example 27, (E)-Methyl 4-(6-chloro-5-(1-(3-(5-chloro-2-(1H-tetrazol-1-yl)phenyl)acrylamido)-3-(4-methylpiperazin-1-yl)-3-oxopropyl)pyridazin-3-yl)phenylcarbamate] | having Factor XIa inhibitory activity
2 | COC(=O)Nc1ccc(-c2cc(C(CC(=O)NCCO)NC(=O)/C=C/c3cc(Cl)ccc3-n3cnnn3)c(Cl)nn2)cc1 (single isomer, unassigned) [Example 30, (E)-Methyl 4-(6-chloro-5-(1-(3-(5-chloro-2-(1H-tetrazol-1-yl)phenyl)acrylamido)-3-(2-hydroxyethylamino)-3-oxopropyl)pyridazin-3-yl)phenylcarbamate] | having Factor XIa inhibitory activity
3 | COC(=O)Nc1ccc(-c2cc(C(CC(=O)NC(C)(C)C)NC(=O)/C=C/c3cc(Cl)ccc3-n3cnnn3)c(Cl)nn2)cc1 (single isomer, unassigned) [Example 31, (E)-Methyl 4-(5-(3-(tert-butylamino)-1-(3-(5-chloro-2-(1H-tetrazol-1-yl)phenyl)acrylamido)-3-oxopropyl)-6-chloropyridazin-3-yl)phenylcarbamate] | having Factor XIa inhibitory activity
4 | COC(=O)Nc1ccc(-c2cc([C@H](CC3CCCNC3)NC(=O)/C=C/c3cc(Cl)ccc3-n3cnnn3)nnc2Cl)cc1 (single isomer, unassigned) [Example 100] | having Factor XIa inhibitory activity
5 | COC(=O)Nc1ccc(-c2cc([C@H](CC3CCCN(C(C)=O)C3)NC(=O)/C=C/c3cc(Cl)ccc3-n3cnnn3)nnc2Cl)cc1 (single isomer, unassigned) [Example 101] | having Factor XIa inhibitory activity
6 | COC(=O)Nc1ccc(-c2cc(C(Cc3ccc(C)nc3)NC(=O)/C=C/c3cc(Cl)ccc3-n3cnnn3)nnc2Cl)cc1 (single isomer, unassigned) [Example 109, (E)-Methyl 4-(3-chloro-6-(1-(3-(5-chloro-2-(1 H-tetrazol-1-yl)phenyl)acrylamido)-2-(6-methylpyridin-3-yl)ethyl)pyridazin-4-yl)phenylcarbamate] | having Factor XIa inhibitory activity
7 | COC(=O)Nc1ccc(-c2cc([C@H](CC3CCCN(C(=O)C(C)C)C3)NC(=O)/C=C/c3cc(Cl)ccc3-n3cnnn3)nnc2Cl)cc1 (single isomer, unassigned) [Example 117] | having Factor XIa inhibitory activity
8 | CNC(=O)N1CCCC(C[C@H](NC(=O)/C=C/c2cc(Cl)ccc2-n2cnnn2)c2cc(-c3ccc(NC(=O)OC)cc3)c(Cl)nn2)C1 (single isomer, unassigned) [Example 124] | having Factor XIa inhibitory activity
9 | CNC(=O)N1CCCC(C[C@H](NC(=O)/C=C/c2cc(Cl)ccc2-n2cnnn2)c2cc(-c3ccc(NC(=O)OC)cc3)c(=O)[nH]n2)C1 (single isomer, unassigned) [Example 157] | having Factor XIa inhibitory activity
10 | COC(=O)Nc1ccc(-c2cc([C@H](CC3CCCN(C(=O)C(C)C)C3)NC(=O)/C=C/c3cc(Cl)ccc3-n3cnnn3)n[nH]c2=O)cc1 (single isomer, unassigned) [Example 159] | having Factor XIa inhibitory activity
11 | COC(=O)Nc1ccc(-c2cc(C(CC(=O)N3CC[C@@H](O)C3)NC(=O)/C=C/c3cc(Cl)ccc3-n3cnnn3)c(Cl)nn2)cc1 (stereo partly drawn) [Example 29, Methyl 4-(6-chloro-5-(1-((E)-3-(5-chloro-2-(1H-tetrazol-1-yl)phenyl)acrylamido)-3-((R)-3-hydroxypyrrolidin-1-yl)-3-oxopropyl)pyridazin-3-yl)phenylcarbamate] | having Factor XIa inhibitory activity
12 | COC(=O)Nc1ccc(-c2cc([C@H](CC(=O)N3CCCC3)NC(=O)/C=C/c3cc(Cl)ccc3-n3cnnn3)c(Cl)nn2)cc1 [Example 33, (S,E)-Methyl 4-(6-chloro-5-(1-(3-(5-chloro-2-(1H-tetrazol-1-yl)phenyl)acrylamido)-3-oxo-3-(pyrrolidin-1-yl)propyl)pyridazin-3-yl)phenylcarbamate] | having Factor XIa inhibitory activity
13 | Nc1ccc(-c2cc([C@H](Cc3ccc(F)cc3)NC(=O)/C=C/c3cc(Cl)ccc3-n3cnnn3)n[nH]c2=O)cc1 [Example 44, (S,E)-N-(1-(5-(4-Aminophenyl)-6-oxo-1,6-dihydropyridazin-3-yl)-2-(4-fluorophenyl)ethyl)-3-(5-chloro-2-(1H-tetrazol-1-yl)phenyl)acrylamide] | having Factor XIa inhibitory activity
14 | CC(=O)OCC(=O)Nc1ccc(-c2cc([C@H](Cc3ccccc3)NC(=O)/C=C/c3cc(Cl)ccc3-n3cnnn3)nnc2Cl)cc1 [Example 48, (S,E)-2-(4-(3-Chloro-6-(1-(3-(5-chloro-2-(1H-tetrazol-1-yl)phenyl)acrylamido)-2-phenylethyl)pyridazin-4-yl)phenylamino)-2-oxoethyl acetate] | having Factor XIa inhibitory activity
15 | O=C(O)CCOC(=O)Nc1ccc(-c2cc([C@H](Cc3ccccc3)NC(=O)/C=C/c3cc(Cl)ccc3-n3cnnn3)nnc2Cl)cc1 [Example 50, (S,E)-3-(4-(3-Chloro-6-(1-(3-(5-chloro-2-(1H-tetrazol-1-yl)phenyl)acrylamido)-2-phenylethyl)pyridazin-4-yl)phenylcarbamoyloxy)propanoic acid] | having Factor XIa inhibitory activity
16 | COC(=O)Nc1ccc(-c2cc([C@H](Cc3ccccc3)NC(=O)/C=C/c3c(C(C)=O)ccc(Cl)c3F)nnc2Cl)cc1 [Example 54, (S,E)-Methyl 4-(6-(1-(3-(6-acetyl-3-chloro-2-fluorophenyl)acrylamido)-2-phenylethyl)-3-chloropyridazin-4-yl)phenylcarbamate] | having Factor XIa inhibitory activity
17 | O=C(O)CCOC(=O)Nc1ccc(-c2cnnc([C@H](Cc3ccccc3)NC(=O)CCc3ccccc3-n3cnnn3)c2)cc1 [Example 60, (S)-3-(4-(6-(1-(3-(2-(1H-Tetrazol-1-yl)phenyl)propanamido)-2-phenylethyl)pyridazin-4-yl)phenylcarbamoyloxy)propanoic acid] | having Factor XIa inhibitory activity
18 | COC(=O)Nc1ccc(-c2cc([C@H](Cc3ccccc3)NC(=O)/C=C/c3cc(Cl)ccc3-n3cnnn3)n[nH]c2=O)cc1F [Example 61, (S,E)-Methyl 4-(6-(1-(3-(5-chloro-2-(1H-tetrazol-1-yl)phenyl)acrylamido)-2-phenylethyl)-3-oxo-2,3-dihydropyridazin-4-yl)-2-fluorophenylcarbamate] | having Factor XIa inhibitory activity
19 | Nc1ccc(-c2cnnc([C@H](Cc3ccccc3)NC(=O)/C=C/c3cc(Cl)ccc3-n3cnnn3)c2)cc1 [Example 64, (S,E)-N-(1-(5-(4-Aminophenyl)pyridazin-3-yl)-2-phenylethyl)-3-(5-chloro-2-(1H-tetrazol-1-yl)phenyl)acrylamide] | having Factor XIa inhibitory activity
20 | CCn1ccc(C[C@H](NC(=O)/C=C/c2cc(Cl)ccc2-n2cnnn2)c2cc(-c3ccc(NC(=O)OC)cc3)c(=O)[nH]n2)n1 [Example 70, (S,E)-Methyl 4-(6-(1-(3-(5-chloro-2-(1H-tetrazol-1-yl)phenyl)acrylamido)-2-(1-ethyl-1H-pyrazol-3-yl)ethyl)-3-oxo-2,3-dihydropyridazin-4-yl)phenylcarbamate] | having Factor XIa inhibitory activity
21 | CCn1ccc(C[C@H](NC(=O)/C=C/c2cc(Cl)ccc2-n2cnnn2)c2cc(-c3ccc(NC(=O)OC)cc3)c(Cl)nn2)n1 [Example 71, (S,E)-Methyl 4-(3-chloro-6-(1-(3-(5-chloro-2-(1H-tetrazol-1-yl)phenyl)acrylamido)-2-(1-ethyl-1H-pyrazol-3-yl)ethyl)pyridazin-4-yl)phenylcarbamate] | having Factor XIa inhibitory activity
22 | CCn1ccc(C[C@H](NC(=O)/C=C/c2cc(Cl)ccc2-n2cnnn2)c2cc(-c3ccc(NC(=O)OC)cc3)cnn2)n1 [Example 72, (S,E)-Methyl 4-(6-(1-(3-(5-chloro-2-(1H-tetrazol-1-yl)phenyl)acrylamido)-2-(1-ethyl-1H-pyrazol-3-yl)ethyl)pyridazin-4-yl)phenylcarbamate] | having Factor XIa inhibitory activity
23 | O=C(/C=C/c1cc(Cl)ccc1-n1cnnn1)N[C@@H](Cc1ccccc1)c1cc(-c2ccc(N3C(=O)CCOC3=O)cc2)cnn1 [Example 77, (S,E)-3-(5-Chloro-2-(1H-tetrazol-1-yl)phenyl)-N-(1-(5-(4-(2,4-dioxo-1,3-oxazinan-3-yl)phenyl)pyridazin-3-yl)-2-phenylethyl)acrylamide] | having Factor XIa inhibitory activity
